Laboratory results: the supplement of paper PMC6078165

Tested on: HCC1143
Test: relative JC-1 red fluorescence (viability) vs pre-drug, coculture with fibroblast (fraction); higher = more viable cancer cells
Procedure: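 JC-1 labelled TNBC cells cocultured 1:1 (1,500 cells each) with CellTrace Violet stained primary or stromal fibroblasts in 384-well plates in FluoroBrite medium, treated with one of 42 anticancer drugs at 0.1, 1, 10 or 100 uM. JC-1 red fluorescence (mitochondrial integrity in cancer cells only) was read by plate reader every 8 h for 72 h. Values are normalised to each well's pre-drug value. The stock of one drug was tenfold lower, so its dose labels may be too high.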

Nc1ccn([C@@H]2O[C@H](CO)[C@@H](O)C2(F)F)c(=O)n1 [Gemcitabine]
relative JC-1 red fluorescence
Details | 8 h | 16 h | 24 h | 32 h | 40 h | 48 h | 56 h | 64 h | 72 h
10 µM, coculture fibroblast: C12385 | 0.843 | 0.732 | 0.654 | 0.573 | 0.503 | 0.449 | 0.398 | 0.351 | 0.328
10 µM, coculture fibroblast: H6013 | 0.768 | 0.682 | 0.642 | 0.622 | 0.566 | 0.564 | 0.542 | 0.54 | 0.514
10 µM, coculture fibroblast: H6019 | 0.799 | 0.721 | 0.656 | 0.577 | 0.527 | 0.486 | 0.435 | 0.395 | 0.363
10 µM, coculture fibroblast: H6076 | 0.771 | 0.787 | 0.707 | 0.6256 | 0.6041 | 0.5766 | 0.541 | 0.513 | 0.5106
10 µM, coculture fibroblast: H6231 | 0.824 | 0.8702 | 0.7742 | 0.603 | 0.665 | 0.626 | 0.589 | 0.54 | 0.514
10 µM, coculture fibroblast: HADF | 0.755 | 0.678 | 0.665 | 0.667 | 0.566 | 0.536 | 0.499 | 0.468 | 0.442
10 µM, coculture fibroblast: HCFa | 0.84 | 0.7277 | 0.6952 | 0.658 | 0.5729 | 0.5571 | 0.5086 | 0.478 | 0.426
10 µM, coculture fibroblast: HCPF | 0.791 | 0.8277 | 0.7522 | 0.607 | 0.643 | 0.592 | 0.547 | 0.501 | 0.481
10 µM, coculture fibroblast: HHSteC | 0.847 | 0.766 | 0.7313 | 0.6901 | 0.612 | 0.585 | 0.536 | 0.503 | 0.453
10 µM, coculture fibroblast: HMF | 0.797 | 0.8377 | 0.765 | 0.647 | 0.677 | 0.644 | 0.599 | 0.5414 | 0.485
10 µM, coculture fibroblast: HPFa | 0.898 | 0.809 | 0.744 | 0.654 | 0.595 | 0.5702 | 0.518 | 0.487 | 0.459
10 µM, coculture fibroblast: HUF | 0.865 | 0.748 | 0.688 | 0.605 | 0.549 | 0.519 | 0.472 | 0.441 | 0.418
10 µM, coculture fibroblast: Hs5 | 0.851 | 0.899 | 0.839 | 0.777 | 0.7072 | 0.6646 | 0.624 | 0.591 | 0.571
10 µM, coculture fibroblast: Hs27A | 0.723 | 0.648 | 0.618 | 0.668 | 0.546 | 0.54 | 0.513 | 0.5 | 0.523
10 µM, coculture fibroblast: Hs343T | 0.824 | 0.8142 | 0.739 | 0.67 | 0.637 | 0.602 | 0.555 | 0.527 | 0.496
10 µM, coculture fibroblast: WS1 | 0.829 | 0.729 | 0.666 | 0.595 | 0.54 | 0.494 | 0.446 | 0.41 | 0.374
100 µM, coculture fibroblast: C12385 | 0.83 | 0.742 | 0.661 | 0.585 | 0.518 | 0.465 | 0.415 | 0.375 | 0.347
100 µM, coculture fibroblast: H6013 | 0.746 | 0.6441 | 0.584 | 0.5525 | 0.478 | 0.47 | 0.446 | 0.438 | 0.422
100 µM, coculture fibroblast: H6019 | 0.835 | 0.734 | 0.691 | 0.622 | 0.553 | 0.526 | 0.483 | 0.442 | 0.422
100 µM, coculture fibroblast: H6076 | 0.7866 | 0.781 | 0.727 | 0.678 | 0.622 | 0.609 | 0.575 | 0.553 | 0.555
100 µM, coculture fibroblast: H6231 | 0.808 | 0.788 | 0.701 | 0.663 | 0.622 | 0.596 | 0.561 | 0.533 | 0.512
100 µM, coculture fibroblast: HADF | 0.7328 | 0.6724 | 0.608 | 0.597 | 0.4999 | 0.4715 | 0.4369 | 0.4075 | 0.378
100 µM, coculture fibroblast: HCFa | 0.768 | 0.657 | 0.6 | 0.57 | 0.474 | 0.449 | 0.399 | 0.367 | 0.349
100 µM, coculture fibroblast: HCPF | 0.8004 | 0.749 | 0.702 | 0.68 | 0.61734 | 0.589 | 0.5553 | 0.5307 | 0.5264
100 µM, coculture fibroblast: HHSteC | 0.847 | 0.761 | 0.729 | 0.695 | 0.614 | 0.583 | 0.532 | 0.505 | 0.455
100 µM, coculture fibroblast: HMF | 0.782 | 0.7983 | 0.725 | 0.644 | 0.6325 | 0.6079 | 0.557 | 0.5145 | 0.484
100 µM, coculture fibroblast: HPFa | 0.914 | 0.8192 | 0.775 | 0.704 | 0.637 | 0.612 | 0.564 | 0.548 | 0.522
100 µM, coculture fibroblast: HUF | 0.8707 | 0.781 | 0.689 | 0.601 | 0.539 | 0.509 | 0.454 | 0.415 | 0.392
100 µM, coculture fibroblast: Hs5 | 0.842 | 0.854 | 0.8 | 0.765 | 0.692 | 0.666 | 0.639 | 0.617 | 0.6138
100 µM, coculture fibroblast: Hs27A | 0.716 | 0.649 | 0.621 | 0.645 | 0.538 | 0.543 | 0.512 | 0.505 | 0.478
100 µM, coculture fibroblast: Hs343T | 0.811 | 0.8068 | 0.736 | 0.6819 | 0.634 | 0.60514 | 0.5535 | 0.525 | 0.5
100 µM, coculture fibroblast: WS1 | 0.8287 | 0.727 | 0.7014 | 0.631 | 0.581 | 0.542 | 0.5053 | 0.463 | 0.446

The reference is the same well before dosing, and untreated signal decays as well.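 Fibroblast labels name human fibroblasts: mostly primary ones from tissues such as uterus (C12385, HUF), lung (H6013), bone (Hs27A), adrenal (HADF) and skin (WS1), plus mammary HMF and breast cancer-associated Hs343T. The cancer cells are basal-like or mesenchymal-like triple-negative breast cancer lines. The paper calls a changed response a hit when it shifts by more than 3x the replicate standard deviation. The tissue of the other fibroblasts is not given here.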
